The match of structure and compound is tentative.
Tests used:
11β-hsd-1 enzyme [1] = target: T1, 11β-hsd-1 enzyme (Homo sapiens, UniProt P28845)
11β-hsd-1 enzyme [2] = target: T1, 11β-hsd-1 enzyme; conditions: Table 1; inhibitor 0.1 μM

Chains of the proteins cited; added tags and fusions are not shown.
UniProt P28845, whole entry: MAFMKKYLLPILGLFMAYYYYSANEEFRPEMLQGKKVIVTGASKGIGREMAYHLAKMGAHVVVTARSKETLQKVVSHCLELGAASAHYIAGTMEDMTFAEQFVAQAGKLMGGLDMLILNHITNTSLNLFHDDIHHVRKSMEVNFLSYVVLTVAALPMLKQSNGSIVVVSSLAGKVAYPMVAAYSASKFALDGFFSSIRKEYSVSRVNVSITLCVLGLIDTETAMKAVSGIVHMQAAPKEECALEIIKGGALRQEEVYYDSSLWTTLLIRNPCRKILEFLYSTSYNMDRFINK

Compound | Ki (11β-hsd-1 enzyme [1]) | % Inh @ 0.1 μM (11β-hsd-1 enzyme [2])
Nc1cccc(NS(=O)(=O)N2CCC(c3ccc(Cl)cc3)CC2)n1 | < 1 nM | 62%
Cc1cc(N)nc(NS(=O)(=O)N2CCN(c3ccc(C#N)cn3)[C@H](C)C2)c1 | 2 nM | 100%
